What all share (experiment): log2 fold change, soluble protein after heating vs DMSO (PISA); higher = thermal stabilisation; K562 lysate, 10 uM; active = over 0.2 and 3.5 SD of the protein, either way, in both replicates (recomputed)
Compound in assay [1]: C1=CC=C(C=C1)[C@H](COC2=CC3=C(C=C2)NC(=O)N3)NC(=O)C4=CC=CN(C4=O)CC5=CC(=C(C=C5)F)F
In short, it runs like this:
(§1)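 Log-two fold change in thermal stability relative to solvent controls is reported from duplicates. For each sample, crude K562 extract from dounce-homogenised pellets in PBS pH 7.4 with 1 mM MgCl2, at 1 mg/mL protein, was treated with 10 μM compound for 30 min. Aliquots heated for 3 min across 48°C-58°C were pooled, brought to 0.5% NP-40 at 4°C and cleared at 21,000xg for 90 min. The supernatant was quantified by TMTpro 16plex LC-MS/MS with channel sums equalised.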

The chains behind the UniProt entries cited, without tags or fusion partners. Where a name states a change or a piece, a line headed by the entry shows the natural chain unless it says otherwise.
UniProt P32322: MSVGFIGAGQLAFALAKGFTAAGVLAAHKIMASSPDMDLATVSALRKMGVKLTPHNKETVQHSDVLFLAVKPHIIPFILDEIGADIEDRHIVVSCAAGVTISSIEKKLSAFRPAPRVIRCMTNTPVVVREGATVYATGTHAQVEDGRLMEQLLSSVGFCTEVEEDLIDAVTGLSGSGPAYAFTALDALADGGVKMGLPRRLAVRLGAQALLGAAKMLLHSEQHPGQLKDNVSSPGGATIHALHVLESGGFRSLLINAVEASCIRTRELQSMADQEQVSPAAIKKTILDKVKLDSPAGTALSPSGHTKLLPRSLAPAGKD
UniProt O00194: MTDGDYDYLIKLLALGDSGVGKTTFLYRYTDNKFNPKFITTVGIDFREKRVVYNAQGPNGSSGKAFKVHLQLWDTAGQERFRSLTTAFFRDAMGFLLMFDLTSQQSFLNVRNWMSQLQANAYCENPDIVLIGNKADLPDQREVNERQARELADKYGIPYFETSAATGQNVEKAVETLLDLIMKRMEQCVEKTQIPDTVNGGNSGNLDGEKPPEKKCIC
UniProt O75154: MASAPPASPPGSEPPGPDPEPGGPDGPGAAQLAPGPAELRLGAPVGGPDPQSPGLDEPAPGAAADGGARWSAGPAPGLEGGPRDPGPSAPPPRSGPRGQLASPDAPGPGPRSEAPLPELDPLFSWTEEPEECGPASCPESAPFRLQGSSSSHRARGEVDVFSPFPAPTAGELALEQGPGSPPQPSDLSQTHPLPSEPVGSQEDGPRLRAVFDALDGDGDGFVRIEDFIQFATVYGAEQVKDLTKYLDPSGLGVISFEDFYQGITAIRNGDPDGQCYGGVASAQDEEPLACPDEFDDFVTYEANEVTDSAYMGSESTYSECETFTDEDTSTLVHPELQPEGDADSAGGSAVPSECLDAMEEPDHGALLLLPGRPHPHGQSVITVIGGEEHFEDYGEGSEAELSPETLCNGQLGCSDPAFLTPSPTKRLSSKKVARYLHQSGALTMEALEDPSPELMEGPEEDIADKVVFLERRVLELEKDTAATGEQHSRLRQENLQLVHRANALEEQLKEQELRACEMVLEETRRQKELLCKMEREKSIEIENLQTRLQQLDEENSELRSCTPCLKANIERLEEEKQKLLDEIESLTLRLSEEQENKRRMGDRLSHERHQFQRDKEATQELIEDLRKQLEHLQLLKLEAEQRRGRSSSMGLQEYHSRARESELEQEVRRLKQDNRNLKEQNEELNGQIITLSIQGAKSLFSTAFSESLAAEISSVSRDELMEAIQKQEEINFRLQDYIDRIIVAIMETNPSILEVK
UniProt O14966: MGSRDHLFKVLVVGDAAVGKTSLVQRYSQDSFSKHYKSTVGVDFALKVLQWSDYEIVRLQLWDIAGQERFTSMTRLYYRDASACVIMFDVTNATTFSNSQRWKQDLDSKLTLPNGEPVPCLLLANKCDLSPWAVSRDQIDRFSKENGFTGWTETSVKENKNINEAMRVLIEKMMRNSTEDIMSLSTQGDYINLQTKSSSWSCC
UniProt Q9BUV8: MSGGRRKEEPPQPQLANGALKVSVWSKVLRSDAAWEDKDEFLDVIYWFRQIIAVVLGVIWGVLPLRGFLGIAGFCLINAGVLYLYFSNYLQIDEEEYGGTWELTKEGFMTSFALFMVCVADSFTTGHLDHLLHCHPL
UniProt Q9H5N1: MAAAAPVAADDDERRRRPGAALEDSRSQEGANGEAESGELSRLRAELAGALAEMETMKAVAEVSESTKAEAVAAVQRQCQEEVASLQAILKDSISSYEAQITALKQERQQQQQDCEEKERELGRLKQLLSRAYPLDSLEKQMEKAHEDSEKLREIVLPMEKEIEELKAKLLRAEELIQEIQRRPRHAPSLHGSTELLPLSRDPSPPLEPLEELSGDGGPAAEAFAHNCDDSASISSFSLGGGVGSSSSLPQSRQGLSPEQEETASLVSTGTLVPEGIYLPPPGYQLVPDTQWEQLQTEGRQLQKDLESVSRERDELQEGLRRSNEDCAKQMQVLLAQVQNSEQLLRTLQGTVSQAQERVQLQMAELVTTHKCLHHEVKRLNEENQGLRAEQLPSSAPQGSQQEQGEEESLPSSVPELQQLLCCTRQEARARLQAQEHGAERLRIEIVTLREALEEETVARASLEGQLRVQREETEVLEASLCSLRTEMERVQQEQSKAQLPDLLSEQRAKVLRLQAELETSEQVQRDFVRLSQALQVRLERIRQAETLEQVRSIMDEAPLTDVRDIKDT
UniProt Q92698: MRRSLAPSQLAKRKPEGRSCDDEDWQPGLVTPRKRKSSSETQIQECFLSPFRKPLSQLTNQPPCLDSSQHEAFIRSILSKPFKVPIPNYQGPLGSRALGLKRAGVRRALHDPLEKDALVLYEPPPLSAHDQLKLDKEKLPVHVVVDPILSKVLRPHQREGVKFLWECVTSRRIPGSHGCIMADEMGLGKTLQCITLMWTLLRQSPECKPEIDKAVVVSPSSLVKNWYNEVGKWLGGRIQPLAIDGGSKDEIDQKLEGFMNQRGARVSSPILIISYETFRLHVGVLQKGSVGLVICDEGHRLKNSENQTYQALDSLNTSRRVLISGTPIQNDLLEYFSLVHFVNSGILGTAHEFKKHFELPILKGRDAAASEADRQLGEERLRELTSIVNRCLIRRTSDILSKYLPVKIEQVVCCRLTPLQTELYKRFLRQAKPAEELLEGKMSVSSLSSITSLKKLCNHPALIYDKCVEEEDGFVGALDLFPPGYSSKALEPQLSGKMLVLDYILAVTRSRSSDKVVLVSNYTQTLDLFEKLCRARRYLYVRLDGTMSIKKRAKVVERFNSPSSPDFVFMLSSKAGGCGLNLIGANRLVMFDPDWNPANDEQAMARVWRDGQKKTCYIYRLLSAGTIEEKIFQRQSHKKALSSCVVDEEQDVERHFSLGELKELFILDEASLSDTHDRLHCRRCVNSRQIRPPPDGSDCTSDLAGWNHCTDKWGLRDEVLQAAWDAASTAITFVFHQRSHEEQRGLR
UniProt P47736: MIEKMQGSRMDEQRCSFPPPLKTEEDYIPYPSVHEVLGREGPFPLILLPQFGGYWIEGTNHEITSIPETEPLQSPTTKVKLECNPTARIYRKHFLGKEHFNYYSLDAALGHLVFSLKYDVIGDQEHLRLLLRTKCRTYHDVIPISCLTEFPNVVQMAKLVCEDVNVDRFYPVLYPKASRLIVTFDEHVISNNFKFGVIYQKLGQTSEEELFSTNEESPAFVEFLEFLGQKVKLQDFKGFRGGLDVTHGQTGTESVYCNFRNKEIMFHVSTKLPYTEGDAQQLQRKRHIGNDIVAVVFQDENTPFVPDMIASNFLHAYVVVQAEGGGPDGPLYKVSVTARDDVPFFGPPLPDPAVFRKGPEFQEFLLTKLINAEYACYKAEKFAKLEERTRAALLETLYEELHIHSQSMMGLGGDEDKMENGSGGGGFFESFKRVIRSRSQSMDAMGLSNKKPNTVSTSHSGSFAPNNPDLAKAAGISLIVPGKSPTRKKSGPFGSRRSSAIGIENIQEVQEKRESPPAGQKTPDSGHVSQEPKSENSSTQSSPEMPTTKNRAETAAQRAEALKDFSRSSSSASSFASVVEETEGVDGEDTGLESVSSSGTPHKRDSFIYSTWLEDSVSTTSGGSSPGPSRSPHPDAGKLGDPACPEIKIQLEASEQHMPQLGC
UniProt P62834: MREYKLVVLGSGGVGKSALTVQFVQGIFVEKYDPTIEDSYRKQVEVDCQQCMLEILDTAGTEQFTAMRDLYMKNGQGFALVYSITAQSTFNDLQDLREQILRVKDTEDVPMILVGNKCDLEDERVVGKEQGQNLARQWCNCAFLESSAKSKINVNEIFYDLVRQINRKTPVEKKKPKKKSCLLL
UniProt O95716: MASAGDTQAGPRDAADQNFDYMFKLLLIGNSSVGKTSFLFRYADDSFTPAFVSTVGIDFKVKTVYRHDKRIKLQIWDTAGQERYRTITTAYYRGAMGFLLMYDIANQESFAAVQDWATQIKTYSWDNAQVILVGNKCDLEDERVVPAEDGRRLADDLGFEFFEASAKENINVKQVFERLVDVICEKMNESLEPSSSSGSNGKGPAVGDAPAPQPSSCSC
UniProt Q9BTL3: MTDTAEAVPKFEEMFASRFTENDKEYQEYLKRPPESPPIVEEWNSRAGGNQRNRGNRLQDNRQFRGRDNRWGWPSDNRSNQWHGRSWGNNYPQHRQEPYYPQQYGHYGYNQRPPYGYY
UniProt P20337: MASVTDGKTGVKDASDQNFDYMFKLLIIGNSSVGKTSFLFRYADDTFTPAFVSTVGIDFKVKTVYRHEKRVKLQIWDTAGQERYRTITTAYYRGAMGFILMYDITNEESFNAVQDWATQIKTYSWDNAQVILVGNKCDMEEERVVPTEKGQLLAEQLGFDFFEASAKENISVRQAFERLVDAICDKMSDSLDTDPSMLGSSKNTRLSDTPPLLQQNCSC
UniProt Q86YS6: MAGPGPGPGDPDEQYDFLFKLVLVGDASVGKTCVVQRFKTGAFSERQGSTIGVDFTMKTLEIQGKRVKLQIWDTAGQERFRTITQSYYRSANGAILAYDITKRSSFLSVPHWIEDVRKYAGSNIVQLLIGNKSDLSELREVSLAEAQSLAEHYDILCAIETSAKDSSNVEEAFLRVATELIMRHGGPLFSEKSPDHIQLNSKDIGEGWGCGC
UniProt Q9Y620: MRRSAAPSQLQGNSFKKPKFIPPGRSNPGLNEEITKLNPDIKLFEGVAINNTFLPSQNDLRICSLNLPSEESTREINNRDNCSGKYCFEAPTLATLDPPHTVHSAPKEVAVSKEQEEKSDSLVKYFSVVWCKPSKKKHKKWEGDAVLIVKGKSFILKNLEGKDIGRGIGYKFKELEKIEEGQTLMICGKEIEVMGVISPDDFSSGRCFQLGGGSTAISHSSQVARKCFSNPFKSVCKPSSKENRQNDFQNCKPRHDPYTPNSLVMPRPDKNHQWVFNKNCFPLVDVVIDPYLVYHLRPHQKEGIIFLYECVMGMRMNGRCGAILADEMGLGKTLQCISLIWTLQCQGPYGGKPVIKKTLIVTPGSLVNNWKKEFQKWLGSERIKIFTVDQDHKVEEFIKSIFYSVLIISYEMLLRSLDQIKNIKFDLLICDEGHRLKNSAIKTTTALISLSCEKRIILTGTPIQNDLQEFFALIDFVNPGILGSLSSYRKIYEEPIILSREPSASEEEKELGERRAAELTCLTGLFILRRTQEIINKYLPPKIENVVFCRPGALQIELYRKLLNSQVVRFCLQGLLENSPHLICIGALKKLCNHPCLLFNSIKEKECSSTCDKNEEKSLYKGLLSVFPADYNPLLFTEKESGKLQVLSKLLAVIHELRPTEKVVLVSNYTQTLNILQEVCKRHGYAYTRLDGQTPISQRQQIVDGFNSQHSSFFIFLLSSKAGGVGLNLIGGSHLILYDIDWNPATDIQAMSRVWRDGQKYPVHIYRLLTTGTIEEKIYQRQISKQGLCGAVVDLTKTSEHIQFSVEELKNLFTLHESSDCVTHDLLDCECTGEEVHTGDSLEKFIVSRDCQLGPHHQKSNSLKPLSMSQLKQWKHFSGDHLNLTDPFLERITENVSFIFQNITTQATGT
UniProt Q96B01: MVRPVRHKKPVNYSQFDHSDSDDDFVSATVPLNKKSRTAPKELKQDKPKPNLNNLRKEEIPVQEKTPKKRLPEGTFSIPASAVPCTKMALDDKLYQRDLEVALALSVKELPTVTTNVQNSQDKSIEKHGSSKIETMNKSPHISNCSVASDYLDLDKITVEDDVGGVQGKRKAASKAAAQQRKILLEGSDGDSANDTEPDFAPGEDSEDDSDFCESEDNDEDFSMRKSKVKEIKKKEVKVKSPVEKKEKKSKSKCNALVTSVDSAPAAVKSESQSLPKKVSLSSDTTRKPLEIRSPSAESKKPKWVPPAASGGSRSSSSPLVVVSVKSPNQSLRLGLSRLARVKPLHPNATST
UniProt Q9HD47: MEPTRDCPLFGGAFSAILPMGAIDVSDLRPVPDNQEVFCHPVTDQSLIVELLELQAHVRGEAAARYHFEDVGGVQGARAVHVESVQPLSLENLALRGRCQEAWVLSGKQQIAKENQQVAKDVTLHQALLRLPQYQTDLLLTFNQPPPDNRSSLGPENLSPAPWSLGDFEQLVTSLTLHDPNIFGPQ
UniProt Q9UL26: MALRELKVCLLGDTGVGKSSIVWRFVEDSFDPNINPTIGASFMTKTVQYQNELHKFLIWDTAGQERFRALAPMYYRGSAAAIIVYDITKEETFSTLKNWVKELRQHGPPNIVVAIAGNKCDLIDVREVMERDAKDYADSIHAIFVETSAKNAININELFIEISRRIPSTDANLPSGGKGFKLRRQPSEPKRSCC
UniProt Q99638: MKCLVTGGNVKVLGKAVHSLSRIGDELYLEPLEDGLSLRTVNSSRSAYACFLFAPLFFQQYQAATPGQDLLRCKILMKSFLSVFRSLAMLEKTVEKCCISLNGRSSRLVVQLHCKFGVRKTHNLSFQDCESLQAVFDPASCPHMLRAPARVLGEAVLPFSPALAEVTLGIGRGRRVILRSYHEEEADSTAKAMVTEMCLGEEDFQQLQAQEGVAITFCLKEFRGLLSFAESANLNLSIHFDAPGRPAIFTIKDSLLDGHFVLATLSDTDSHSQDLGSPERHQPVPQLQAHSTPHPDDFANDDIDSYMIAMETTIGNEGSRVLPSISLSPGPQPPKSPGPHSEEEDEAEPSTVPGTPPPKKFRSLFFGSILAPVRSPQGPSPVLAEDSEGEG

Compound in assay [2]: CC1=C(SC2=C1C(=N[C@H](C3=NN=C(N32)C)CC(=O)N)C4=CC=C(C=C4)Cl)C
In short, it runs like this: as §1

Compound in assay [3]: c1ccc([C@@H]2C[C@H]2NC2CCNCC2)cc1
The method, boiled down: as §1

Compound in assay [4]: Cc1sc2c(c1C)C(c1ccc(Cl)cc1)=N[C@@H](CC(=O)OC(C)(C)C)c1nnc(C)n1-2
In short, it runs like this: as §1

Compound in assay [5]: CC1=C2C(=CC=C1)N=C(N(C2=O)C3=CC=CC=C3C)CN4C=NC5=C(N=CN=C54)N
In short, it runs like this: as §1

This is one part of the list.

As for RAP1GDS1 isoform 4 (UniProt P52306), the log2 fold change is inactive: 0.109 in assay [1], inactive: -0.086 in assay [2] and inactive: -0.019 in assay [3].

Take PYCR1 isoform 3 (UniProt P32322): the log2 fold change is inactive: 0.013 in assay [1], inactive: 0.069 in assay [2] and inactive: 0 in assay [4].

Turning to RAB27B (UniProt O00194), the log2 fold change is inactive: 0.051 in assay [5], inactive: -0.078 in assay [4] and inactive: -0.055 in assay [3].

RAB11FIP3 isoform 3 (UniProt O75154): the log2 fold change in assay [4] was inactive: 0.125.

In the case of RAB29 (UniProt O14966), the values for the log2 fold change in assay [4] and in assay [3] were inactive: 0.198 and inactive: 0.143, respectively.

As to PYCARD isoform 2 (UniProt Q9ULZ3), the log2 fold change is inactive: -0.011 in assay [1], inactive: 0.015 in assay [2] and inactive: 0.117 in assay [3].

Regarding RAB5IF isoform 5 (UniProt Q9BUV8), the log2 fold change in assay [1] is inactive: 0.01; in assay [2] it was inactive: -0.096; in assay [5] it was inactive: 0.019; in assay [4], inactive: -0.085; in assay [3], inactive: 0.364.

As to RAB39B (UniProt Q96DA2), the values for the log2 fold change in assay [1], in assay [2] and in assay [3] were inactive: 0.081, inactive: -0.051 and inactive: -0.996, respectively.

With RABEP2 (UniProt Q9H5N1), the log2 fold change was inactive: -0.005 in assay [1]; inactive: 0.005 in assay [2]; inactive: 0.057 in assay [5]; inactive: -0.027 in assay [4]; inactive: 0.044 in assay [3].

Turning to RAC3 (UniProt P60763), the figures for the log2 fold change in assay [5] and in assay [3] were inactive: -0.051 and inactive: 0.029, respectively.

Consider RAD54L (UniProt Q92698), for which the log2 fold change in assay [1] is inactive: -0.013; in assay [2] it was inactive: -0.031; in assay [4] it was inactive: -0.299; in assay [3], active: -1.06.

For the target RAB11FIP5, A0A1B0GTL5, the log2 fold change in assay [3] was inactive: 0.158.

RAP1GAP isoform 4 (UniProt P47736): the log2 fold change is inactive: 0.019 in assay [1]; inactive: -0.012 in assay [2]; inactive: -0.019 in assay [5]; inactive: -0.009 in assay [4]; inactive: 0.007 in assay [3].

For RAP1A (UniProt P62834), the log2 fold change in assay [1] was inactive: -0.018; in assay [2], inactive: 0.04; in assay [5] it was inactive: 0.009; in assay [4], inactive: 0.071; in assay [3], inactive: -0.003.

As to RAB3D (UniProt O95716), the log2 fold change in assay [5] was inactive: 0.104; in assay [4], inactive: -0.032.

In the case of RAMAC (UniProt Q9BTL3), the log2 fold change in assay [1] was inactive: 0.081; in assay [2] it was inactive: -0.025; in assay [5] it was inactive: -0.011; in assay [4], inactive: -0.029; in assay [3] it was inactive: 0.033.

As for RALGPS2 (UniProt Q86X27), the log2 fold change was inactive: -0.074 in assay [1], inactive: -0.014 in assay [2], inactive: 0.121 in assay [5] and inactive: -0.108 in assay [3].

For the target RAD23A isoform 3 (UniProt P54725), the log2 fold change in assay [3] was inactive: -0.233.

On to RAB3B (UniProt P20337), for which the log2 fold change in assay [3] is inactive: 0.083.

Take QSER1, A0A3B3IRW6: the log2 fold change is inactive: 0.047 in assay [5] and inactive: -0.027 in assay [4].

On to RAB43 (UniProt Q86YS6), for which the log2 fold change is inactive: 0.01 in assay [1], inactive: -0.031 in assay [2], inactive: 0.178 in assay [4] and inactive: -0.016 in assay [3].

In the case of RAD54B (UniProt Q9Y620), the figures for the log2 fold change in assay [5] and in assay [4] were inactive: -0.023 and inactive: -0.017, respectively.

With RAD51AP1 (UniProt Q96B01), the log2 fold change is inactive: 0.017 in assay [1], inactive: 0.116 in assay [2], inactive: 0.143 in assay [4] and inactive: -0.024 in assay [3].

With RALGAPA2 (UniProt Q2PPJ7), the log2 fold change in assay [3] is inactive: 0.211.

RAB7A (UniProt P51149): the log2 fold change was inactive: 0.003 in assay [1]; inactive: -0.016 in assay [2]; inactive: 0.03 in assay [5]; inactive: -0.001 in assay [4]; inactive: -0.01 in assay [3].

For QKI (UniProt Q96PU8), the log2 fold change was inactive: -0.071 in assay [1]; inactive: -0.001 in assay [2]; inactive: -0.023 in assay [5]; inactive: 0.04 in assay [4]; inactive: -0.034 in assay [3].

In the case of QSOX1 (UniProt O00391), the log2 fold change is inactive: 0.152 in assay [4] and inactive: -0.066 in assay [3].

Consider PYGO2 (UniProt Q9BRQ0), for which the log2 fold change was inactive: 0.064 in assay [1], inactive: 0.031 in assay [2], inactive: 0.024 in assay [4] and inactive: 0.011 in assay [3].

Regarding RALGAPB isoform 3 (UniProt Q86X10), the log2 fold change in assay [1] was inactive: 0.107; in assay [2] it was inactive: 0.05; in assay [4] it was inactive: 0.189; in assay [3], inactive: 0.153.

Turning to NA (UniProt Q4G0T1), the log2 fold change in assay [4] is inactive: -0.027; in assay [3] it was inactive: -0.025.

In the case of PYHIN1 (UniProt Q6K0P9), in assay [4], the log2 fold change is inactive: -0.059.

R3HDM4 (UniProt Q96D70): the log2 fold change is inactive: -0.02 in assay [5], inactive: -0.096 in assay [4] and inactive: 0.154 in assay [3].

Take RANGRF (UniProt Q9HD47): the log2 fold change in assay [4] was inactive: 0.093.

Take RABGAP1 (UniProt Q9Y3P9): the log2 fold change is inactive: 0.023 in assay [1]; inactive: 0.013 in assay [2]; inactive: 0.031 in assay [5]; inactive: 0.003 in assay [4]; inactive: -0.002 in assay [3].

For RAB22A (UniProt Q9UL26), the log2 fold change was inactive: 0.002 in assay [1]; inactive: 0.006 in assay [2]; inactive: 0.021 in assay [5]; inactive: -0.09 in assay [4]; inactive: -0.004 in assay [3].

Regarding RAP1GDS1 isoform 5 (UniProt P52306), the log2 fold change in assay [1] was inactive: -0.008; in assay [2], inactive: 0.021; in assay [5] it was inactive: -0.011; in assay [4] it was inactive: -0.006; in assay [3], inactive: -0.006.

Consider PYGL (UniProt P06737), for which the log2 fold change was inactive: 0.006 in assay [1]; inactive: 0.009 in assay [2]; inactive: 0.008 in assay [5]; inactive: -0.008 in assay [4]; inactive: -0.011 in assay [3].

Turning to RAB40C (UniProt Q96S21), the log2 fold change in assay [1] was inactive: 0.087; in assay [2] it was inactive: -0.006; in assay [5], inactive: 0.048; in assay [3] it was inactive: -0.074.

Regarding RACK1 (UniProt D6RHH4), the log2 fold change was inactive: 0.014 in assay [1], inactive: 0.027 in assay [2], inactive: 0.05 in assay [5] and inactive: -0.309 in assay [3].

For RAD9A (UniProt Q99638), the log2 fold change is inactive: 0.014 in assay [1]; inactive: 0.002 in assay [2]; inactive: -0.007 in assay [5]; inactive: -0.027 in assay [4]; inactive: 0.043 in assay [3].

The values are drawn from the supplement of paper PMC10849652.
